No constants are given. Whether binding was seen depends on the method and setting. Binding seen in cells or lysates may run through a third protein. Some entries that bind do so weakly or less than the wild type.
Key:
[1] = target: T1, β-catenin (rat (endogenous in rat ENS cells)) (UniProt Q9WU82); experiment: co-IP; nuclear protein extracts (RIPA) of rat ENS cells cultured for 7 days in SM or BM; immunoaffinity purification with anti-NF-κB p65 or anti-β-catenin pre-immobilized onto Protein A Sepharose; Western blot with both antibodies on a 6.5% polyacrylamide gel
T1 sequence: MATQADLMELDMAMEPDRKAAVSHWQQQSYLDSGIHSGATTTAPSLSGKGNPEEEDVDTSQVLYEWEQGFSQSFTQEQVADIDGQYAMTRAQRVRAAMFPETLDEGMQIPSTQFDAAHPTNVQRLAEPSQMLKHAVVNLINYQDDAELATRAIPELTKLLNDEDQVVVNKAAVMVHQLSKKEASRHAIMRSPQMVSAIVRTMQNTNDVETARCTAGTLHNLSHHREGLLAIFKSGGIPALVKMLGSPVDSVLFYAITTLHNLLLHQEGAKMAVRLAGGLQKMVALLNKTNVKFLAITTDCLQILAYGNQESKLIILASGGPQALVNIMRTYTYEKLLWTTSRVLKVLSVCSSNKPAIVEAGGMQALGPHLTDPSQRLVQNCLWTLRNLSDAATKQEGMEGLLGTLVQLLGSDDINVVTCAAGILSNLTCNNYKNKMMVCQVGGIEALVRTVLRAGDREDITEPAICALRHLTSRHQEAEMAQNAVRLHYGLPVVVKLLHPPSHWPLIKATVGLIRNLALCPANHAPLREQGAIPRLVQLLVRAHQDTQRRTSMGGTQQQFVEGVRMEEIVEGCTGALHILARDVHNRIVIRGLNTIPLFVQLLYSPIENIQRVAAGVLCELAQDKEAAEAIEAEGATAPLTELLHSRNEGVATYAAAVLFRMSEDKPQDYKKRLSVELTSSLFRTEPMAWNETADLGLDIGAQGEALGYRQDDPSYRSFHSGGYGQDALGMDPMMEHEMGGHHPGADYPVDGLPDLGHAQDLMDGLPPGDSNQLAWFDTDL

By UniProt entry, the sequences of proteins in these tests, tags left out. Residues count along the entry.
UniProt Q7TQN4: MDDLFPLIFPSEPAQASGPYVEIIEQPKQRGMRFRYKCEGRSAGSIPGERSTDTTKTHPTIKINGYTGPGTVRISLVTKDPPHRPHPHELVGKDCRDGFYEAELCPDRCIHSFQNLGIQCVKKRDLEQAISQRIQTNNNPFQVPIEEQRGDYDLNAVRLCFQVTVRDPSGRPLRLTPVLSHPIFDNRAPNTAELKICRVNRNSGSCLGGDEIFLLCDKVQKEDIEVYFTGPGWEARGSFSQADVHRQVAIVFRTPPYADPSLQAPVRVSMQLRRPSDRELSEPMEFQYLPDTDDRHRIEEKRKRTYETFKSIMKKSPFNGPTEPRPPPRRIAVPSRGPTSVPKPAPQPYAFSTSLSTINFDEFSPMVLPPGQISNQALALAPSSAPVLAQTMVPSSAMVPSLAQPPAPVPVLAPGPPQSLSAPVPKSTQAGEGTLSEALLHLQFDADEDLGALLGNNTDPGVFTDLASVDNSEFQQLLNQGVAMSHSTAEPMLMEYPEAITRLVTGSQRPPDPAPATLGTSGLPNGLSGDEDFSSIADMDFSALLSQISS
UniProt P27467, residues 19-352: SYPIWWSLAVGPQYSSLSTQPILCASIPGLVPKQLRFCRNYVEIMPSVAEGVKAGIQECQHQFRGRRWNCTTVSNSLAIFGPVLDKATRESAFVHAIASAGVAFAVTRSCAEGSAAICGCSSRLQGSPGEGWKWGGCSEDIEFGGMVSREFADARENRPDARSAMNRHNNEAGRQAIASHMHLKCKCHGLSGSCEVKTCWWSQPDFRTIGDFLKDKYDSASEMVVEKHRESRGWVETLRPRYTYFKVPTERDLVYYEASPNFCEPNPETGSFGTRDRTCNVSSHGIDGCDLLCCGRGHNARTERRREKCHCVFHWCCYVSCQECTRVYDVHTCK

[2] = target: T2, Frizzled 9 (rat (endogenous in rat ENS cells)) (UniProt Q8K4C8); experiment: co-IP; recombinant Wnt3a (200 ng/mL) added to protein extracts of rat ENS cells cultured for 7 days in SM or BM, overnight at 4°C; immunoaffinity purification with goat anti-rat Frizzled 9 and rabbit anti-rat Wnt3a pre-immobilized onto Protein A Sepharose; Western blot with the same antibodies on a 4%-15% gradient gel; only the binder purified
T2 sequence: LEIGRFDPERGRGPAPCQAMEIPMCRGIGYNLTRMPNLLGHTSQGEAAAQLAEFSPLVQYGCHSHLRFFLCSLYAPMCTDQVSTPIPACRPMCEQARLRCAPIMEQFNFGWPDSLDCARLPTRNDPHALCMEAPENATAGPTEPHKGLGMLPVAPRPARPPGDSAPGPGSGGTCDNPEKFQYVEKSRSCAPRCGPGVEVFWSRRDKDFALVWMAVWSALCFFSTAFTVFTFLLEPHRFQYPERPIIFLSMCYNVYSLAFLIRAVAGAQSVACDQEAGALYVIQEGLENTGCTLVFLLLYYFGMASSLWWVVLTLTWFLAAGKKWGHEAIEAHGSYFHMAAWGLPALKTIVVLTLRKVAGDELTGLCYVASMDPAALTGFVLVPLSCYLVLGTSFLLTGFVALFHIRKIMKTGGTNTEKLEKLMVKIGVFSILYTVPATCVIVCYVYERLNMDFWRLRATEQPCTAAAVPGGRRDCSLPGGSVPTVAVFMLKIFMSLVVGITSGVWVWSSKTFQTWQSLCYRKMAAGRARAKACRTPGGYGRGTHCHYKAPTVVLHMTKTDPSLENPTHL

| binding [1] | binding [2] | Substance |
| --- | --- | --- |
| binds |  | NF-κB p65 (from UniProt Q7TQN4 1-550) |
|  | binds | Recombinant Wnt3a protein (from UniProt P27467 19-352) (ligand) |

Reference: paper PMC4332439
